Measured values from patent US7538127B2, “Medicinal compounds” (Glaxo Group Limited, priority 2003, dated 2009).
Some of these results come from one statement about several compounds together. At least one structure is not confirmed: it was looked up by name or label, or the drawing left a doubt.

Sequences of proteins named here, by UniProt entry; tags and fusion partners are left off.
UniProt P07550, whole entry: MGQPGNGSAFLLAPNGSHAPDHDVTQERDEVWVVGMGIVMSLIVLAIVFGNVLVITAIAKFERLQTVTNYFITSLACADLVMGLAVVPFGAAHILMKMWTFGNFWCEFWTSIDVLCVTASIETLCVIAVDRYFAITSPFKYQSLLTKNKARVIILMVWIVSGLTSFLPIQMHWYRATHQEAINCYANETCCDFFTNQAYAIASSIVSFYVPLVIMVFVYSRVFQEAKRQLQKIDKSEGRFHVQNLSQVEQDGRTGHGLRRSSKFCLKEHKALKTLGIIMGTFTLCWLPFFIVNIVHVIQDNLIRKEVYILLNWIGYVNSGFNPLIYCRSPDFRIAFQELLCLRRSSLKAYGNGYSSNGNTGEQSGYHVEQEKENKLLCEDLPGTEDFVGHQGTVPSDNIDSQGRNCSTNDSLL

Target: T1, human beta-2 receptor (Homo sapiens, UniProt P07550)
T1 construct: expressed in transfected cells; host or cells: Chinese hamster ovary (CHO) cells, whole cells or membranes
Assay: Agonist potency at human beta-2 receptor in CHO cells co-expressing the human receptor with a reporter gene (cAMP measurement, whole cells or membranes)
Type: cell-based
Conditions: Chinese hamster ovary cells co-expressing the human receptor with a reporter gene

## CC(=O)O.Nc1c(Cl)cc([C@@H](O)CNCCCCCCOCCOCc2c(Cl)cccc2Cl)cc1Cl [Example 1, (1R)-1-(4-Amino-3,5-dichlorophenyl)-2-[(6-{2-[(2,6-dichlorobenzyl)oxy]ethoxy}hexyl)amino]ethanol acetate]
  pEC50: > 6
